{"source": "PubChem BioAssay AID686943 (Drosophila RNAi Screening Center, 2013)", "test": "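Knockdowns that increase or decrease active ERK after insulin receptor stimulation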 (primary screen)", "cell system": "Drosophila S2R+ haemocyte-like cells expressing YFP-tagged ERK (Rolled)", "knock-down reagent": "long dsRNA against Drosophila genes", "conditions": "insulin stimulation versus unstimulated cells; dose and duration not given", "measured": "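Per-plate z-scores of phospho-ERK immunostaining normalised to YFP-tagged ERK, measured with and without insulin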", "scale": "replicate 1, z-score of dpERK with insulin and replicate 2, z-score of dpERK with insulin: higher = more active ERK per ERK-YFP after insulin", "note": "The deposit covers about 23,000 reagents; this is a random part of those that have a named target and a result. 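Extra replicates exist only for a retested subset of genes; insulin dose and duration not given; both raised and lowered dpERK matter.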 Names joined by + are all predicted targets of the reagent. Further read-outs or replicates are left out here. The record does not give: the amount of reagent, the time to read-out."}
{"gene": "CG31368", "DRSC id": "DRSC14949", "replicate 1, z-score of dpERK with insulin": 0.21, "replicate 2, z-score of dpERK with insulin": 1.52}
{"gene": "CG31368", "DRSC id": "DRSC14951", "replicate 1, z-score of dpERK with insulin": 0.61, "replicate 2, z-score of dpERK with insulin": 0.69}
{"gene": "Hsp60B", "DRSC id": "DRSC00542", "replicate 1, z-score of dpERK with insulin": 0.97, "replicate 2, z-score of dpERK with insulin": 1.29}
{"gene": "Sytbeta", "DRSC id": "DRSC10009", "replicate 1, z-score of dpERK with insulin": 0.92, "replicate 2, z-score of dpERK with insulin": 0.68}
{"gene": "Sytbeta", "DRSC id": "DRSC10351", "replicate 1, z-score of dpERK with insulin": -0.27, "replicate 2, z-score of dpERK with insulin": -0.53}
{"gene": "CecA1", "DRSC id": "DRSC16603", "replicate 1, z-score of dpERK with insulin": 0.25, "replicate 2, z-score of dpERK with insulin": -0.08}
{"gene": "CG34161", "DRSC id": "DRSC01132", "replicate 1, z-score of dpERK with insulin": 0, "replicate 2, z-score of dpERK with insulin": 0.3}
{"gene": "CG13243", "DRSC id": "DRSC01920", "replicate 1, z-score of dpERK with insulin": -0.64, "replicate 2, z-score of dpERK with insulin": -0.93}
{"gene": "Zwilch", "DRSC id": "DRSC15376", "replicate 1, z-score of dpERK with insulin": -0.12, "replicate 2, z-score of dpERK with insulin": -0.12}
{"gene": "CG32188", "DRSC id": "DRSC09510", "replicate 1, z-score of dpERK with insulin": 1.24, "replicate 2, z-score of dpERK with insulin": 2.05}
{"gene": "CG9853", "DRSC id": "DRSC12343", "replicate 1, z-score of dpERK with insulin": -0.12, "replicate 2, z-score of dpERK with insulin": 0.4}
{"gene": "CG9853", "DRSC id": "DRSC22840", "replicate 1, z-score of dpERK with insulin": 0, "replicate 2, z-score of dpERK with insulin": -0.23}
{"gene": "CG8478", "DRSC id": "DRSC16427", "replicate 1, z-score of dpERK with insulin": -0.44, "replicate 2, z-score of dpERK with insulin": 1.22}
{"gene": "CG12209", "DRSC id": "DRSC06119", "replicate 1, z-score of dpERK with insulin": 0.14, "replicate 2, z-score of dpERK with insulin": 1.14}
{"gene": "CG31041", "DRSC id": "DRSC13951", "replicate 1, z-score of dpERK with insulin": -0.04, "replicate 2, z-score of dpERK with insulin": 0.31}
{"gene": "CG17486", "DRSC id": "DRSC07752", "replicate 1, z-score of dpERK with insulin": -0.5, "replicate 2, z-score of dpERK with insulin": 0.43}
{"gene": "Bdbt", "DRSC id": "DRSC15218", "replicate 1, z-score of dpERK with insulin": -0.4, "replicate 2, z-score of dpERK with insulin": -0.12}
{"gene": "Nup160", "DRSC id": "DRSC02774", "replicate 1, z-score of dpERK with insulin": -0.48, "replicate 2, z-score of dpERK with insulin": 0.23}
{"gene": "CG2201", "DRSC id": "DRSC03721", "replicate 1, z-score of dpERK with insulin": 0.22, "replicate 2, z-score of dpERK with insulin": -0.11}
{"gene": "7SLRNA:CR42652 + 7SLRNA:CR32864", "DRSC id": "DRSC22968", "replicate 1, z-score of dpERK with insulin": 1.7, "replicate 2, z-score of dpERK with insulin": 0.41}
{"gene": "CG15293", "DRSC id": "DRSC01919", "replicate 1, z-score of dpERK with insulin": -0.62, "replicate 2, z-score of dpERK with insulin": -0.29}
{"gene": "Hsc70-3", "DRSC id": "DRSC20253", "replicate 1, z-score of dpERK with insulin": 1.99, "replicate 2, z-score of dpERK with insulin": -0.91}
{"gene": "bur", "DRSC id": "DRSC03163", "replicate 1, z-score of dpERK with insulin": -0.46, "replicate 2, z-score of dpERK with insulin": -0.13}
{"gene": "CG10357", "DRSC id": "DRSC08155", "replicate 1, z-score of dpERK with insulin": -0.46, "replicate 2, z-score of dpERK with insulin": -0.27}
{"gene": "CG30172", "DRSC id": "DRSC21519", "replicate 1, z-score of dpERK with insulin": 0.42, "replicate 2, z-score of dpERK with insulin": 0.52}
{"gene": "CNBP", "DRSC id": "DRSC04116", "replicate 1, z-score of dpERK with insulin": 0.23, "replicate 2, z-score of dpERK with insulin": 0.92}
{"gene": "CNBP", "DRSC id": "DRSC04419", "replicate 1, z-score of dpERK with insulin": 0.3, "replicate 2, z-score of dpERK with insulin": -0.01}
{"gene": "CNBP", "DRSC id": "DRSC21317", "replicate 1, z-score of dpERK with insulin": -0.21, "replicate 2, z-score of dpERK with insulin": -1.24}
{"gene": "Akt", "DRSC id": "DRSC14108", "replicate 1, z-score of dpERK with insulin": 1.92, "replicate 2, z-score of dpERK with insulin": 3.54}
{"gene": "Traf-like", "DRSC id": "DRSC19894", "replicate 1, z-score of dpERK with insulin": 0.8, "replicate 2, z-score of dpERK with insulin": 0.53}
{"gene": "CG13116", "DRSC id": "DRSC02214", "replicate 1, z-score of dpERK with insulin": 0.94, "replicate 2, z-score of dpERK with insulin": 0.6}
{"gene": "CG13116", "DRSC id": "DRSC21945", "replicate 1, z-score of dpERK with insulin": -0.64, "replicate 2, z-score of dpERK with insulin": -3}

Not a retest: entries from further up.
{"gene": "Bdbt", "DRSC id": "DRSC15218", "replicate 1, z-score of dpERK with insulin": -0.4, "replicate 2, z-score of dpERK with insulin": -0.12}
{"gene": "Nup160", "DRSC id": "DRSC02774", "replicate 1, z-score of dpERK with insulin": -0.48, "replicate 2, z-score of dpERK with insulin": 0.23}
